The data set addresses T1, GAGA factor (GAF) (UniProt Q08605).
T1 sequence (looked up, limits assumed): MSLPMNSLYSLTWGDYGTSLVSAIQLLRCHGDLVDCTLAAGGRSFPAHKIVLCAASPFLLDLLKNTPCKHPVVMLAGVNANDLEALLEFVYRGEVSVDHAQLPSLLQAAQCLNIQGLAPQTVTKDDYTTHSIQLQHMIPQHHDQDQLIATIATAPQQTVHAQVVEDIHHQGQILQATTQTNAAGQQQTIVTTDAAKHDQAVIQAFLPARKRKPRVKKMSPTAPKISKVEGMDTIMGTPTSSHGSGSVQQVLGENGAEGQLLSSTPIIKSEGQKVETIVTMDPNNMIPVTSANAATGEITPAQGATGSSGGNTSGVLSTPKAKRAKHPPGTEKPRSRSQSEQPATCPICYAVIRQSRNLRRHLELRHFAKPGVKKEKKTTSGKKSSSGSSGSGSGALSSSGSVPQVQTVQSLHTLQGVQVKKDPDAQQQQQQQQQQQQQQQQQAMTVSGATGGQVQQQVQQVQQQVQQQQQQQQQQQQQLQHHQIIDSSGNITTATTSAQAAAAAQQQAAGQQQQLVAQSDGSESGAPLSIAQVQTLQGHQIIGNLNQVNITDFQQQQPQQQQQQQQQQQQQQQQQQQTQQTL
Put plainly: footprint. As to conditions: DNase I footprint; GAF protects both the (AAGAG)2 and Ubx motifs; room temperature; label: radiolabeled (end-labeled).

Construct, isoform or probe ends are uncertain for at least one entry. Protein sequences can lack the tags named with them.

On to “GATCCTCAGAGAGAGCGCAAGAGCGTCCCGGGAGAAGAGAAGAGAGTA / GATCTACTCTCTTCTCTTCTCCCGGGACGCTCTTGCGCTCTCTCTGAG”, for which the binding result was “binds”.
